Among the data in patent US20140301946A1 (Novartis, published 2014) are binding values, retold here.

Common to all, as to experiment: SPR (Biacore)
Background: In SPR one partner is held on a chip, and binding of the other changes the refractive index at the surface.

The target of assay [1] is Human FGFR1 IIIb D1-3 (human).
The target in assay [2] is Human FGFR2 IIIb D1-3 (human).
Assay [3] concerns the target Human FGFR3 IIIb D1-3 (human).
Assay [4] addresses Mouse FGFR2 IIIb D1-3 (mouse).
For assay [5], the target named is Rat FGFR2 IIIb D1-3 (rat).

These are yes or no findings as the source states them, for the method shown. For some of these results: Binding can be weak; no strength is given.

B1: mAb 12422 (antibody, human IgG1, kappa, V domains shown)
VH: QVQLVQSGAEVKKPGSSVKVSCKASGGTFSSYAISWVRQAPGQGLEWMGYISPYMGETHYAQKFQGRVTITADESTSTAYMELSSLRSEDTAVYYCARESYEYFDIWGQGTLVTVSS
VL: DIQMTQSPSSLSASVGDRVTITCRASQSISNDLAWYQQKPGKAPKLLIYATSILQSGVPSRFSGSGSGTDFTLTISSLQPEDFATYYCLQYYDYSYTFGQGTKVEIKR
As for B1, the binding entry is “no binding” in assay [1]; “binds” in assay [2]; “no binding” in assay [3]; “binds” in assay [4]; “binds” in assay [5].

B2: mAb 12439 (antibody, human IgG1, kappa, V domains shown)
VH: QVQLVQSGAEVKKPGASVKVSCKASGYTFTSYDISWVRQAPGQGLEWMGWINPYNGGTNYAQKFQGRVTMTRDTSISTAYMELSRLRSEDTAVYYCAREGSGMIVYPGWSYAFDYWGQGTLVTVSS
VL: DIQMTQSPSSLSASVGDRVTITCRASQDISNDLGWYQQKPGKAPKLLIYAASSLQSGVPSRFSGSGSGTDFTLTISSLQPEDFATYYCQQHYHTPNTFGQGTKVEIKR
B2: the binding entry in assay [1] is “no binding”; in assay [2], “binds”; in assay [3], “no binding”; in assay [4], “binds”; in assay [5], “binds”.
